From PubChem BioAssay AID1347076 (National Center for Advancing Translational Sciences (NCATS), 2019)
The campaign covered roughly 400,000 compounds. About 13,000 (3.2%) were called active. Inconclusive results, whose numbers are uncertain, are shown with a selection of clear calls. Calls follow the shape of the dose curve; as a rule, active = well fitted cell-killing curve with a large enough effect; inconclusive = small, poorly fitted or top-dose-only effect, or effect the other way; inactive = flat fitted curve, though single readings scatter. Where the call is inconclusive, the potency comes from a doubtful curve fit.

Experiment: qHTS assay for MDR1-selective chemotherapeutics: Primary screen using the drug-selected MDR subline cells KB-V1; also: nearly all actives have a fitted effect of over 60% in size
Conditions: KB-V1 MDR cells viability, CellTiter-Glo, 72 h; activity change, negative = cytotoxicity: at 46.1 µM (top of the series)
How it was run: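 KB-V1 MDR subline cells in DMEM (phenol-red free, 10% FBS) exposed to compounds in qHTS concentration series for 72 h at 37 degrees C. Viability read by CellTiter-Glo luminescence; concentration-effect curves fitted after normalization and correction.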
% is scaled to controls: 0 for no effect and ±100 for the full control effect; potency is read from the fitted curve at half-maximal effect.

| SMILES | Potency | activity change, negative = cytotoxicity |
| --- | --- | --- |
| COc1ccccc1CNC(=O)c1c(-c2ccccc2)nn(-c2ccccc2)c1C | inconclusive: 18.4 µM [cytotoxic, single point] |  |
| CC(=O)C1=CCC(c2cccs2)N(S(=O)(=O)c2ccc(C)cc2)C1 (stereo unspecified) | inconclusive: 29.1 µM [cytotoxic, single point] |  |
| N#Cc1cccc(C(=O)C(=O)N2CCCN(Cc3ccc(F)cc3)CC2)c1 | inconclusive: 14.6 µM [cytotoxic, partial curve, poor fit] |  |
| Cc1ccc(NC(=O)Nc2cccnc2)cc1 |  | inactive: -4.27% |
| CCCCn1c(SCC(=O)NCc2ccco2)nc2ccc(N3CCOCC3)cc2c1=O | active: 2.06 µM |  |
| Cc1cc(C)c(C#N)c(SCc2ccccc2C)n1 | inconclusive: 13 µM [cytotoxic, partial curve] |  |
| Cc1cc([N+](=O)[O-])ccc1NC(=O)CCC(=O)N1CCCCC1 |  | inactive: -6.25% |
| O=C(C1=C[C@H](C2CCCCC2)C[C@H](OCc2ccc(CO)cc2)O1)N1CCN(Cc2ccccc2)CC1 |  | inactive: 6.57% |
| O=C(NNC(=O)c1cc2cc(Br)ccc2oc1=O)c1ccc(O)cc1O | inconclusive: 20.6 µM [cytotoxic, single point] |  |
| O=S(=O)(N/N=C/c1cccc(OC2CSC2)c1)c1ccccc1 | inconclusive: 29.1 µM [cytotoxic, single point] |  |
| Cc1nn2cc(-c3ccc(Cl)cc3)nc2s1 | inconclusive: 16.4 µM [cytotoxic, partial curve] |  |
| c1ccc2c(Nc3nc4c(s3)CCCC4)cccc2c1 | inconclusive: 29.1 µM [cytotoxic, single point] |  |
| O=C(CCCc1c[nH]c2ccccc12)N1CCN(S(=O)(=O)c2cccs2)CC1 | inconclusive: 18.4 µM [cytotoxic, single point] |  |
| O=C/C(=C\Nc1ccc(Cl)cn1)c1nc2ccccc2o1 |  | inactive: 2.78% |
| CCOc1ccc(NC(=O)CC2C(=O)Nc3ccccc3N2C(=O)c2ccccc2)cc1 (stereo unspecified) | inconclusive: 32.6 µM [cytotoxic, partial curve, poor fit] |  |
| C=C(C)C1CC=C(C)/C(=N/NC(=O)c2ccc(NC(=O)CC)cc2)C1 (stereo unspecified) | active: 14.6 µM |  |
| COCCCNC(=S)NNC(=O)c1ccc(C(C)(C)C)cc1 | inconclusive: 7.31 µM [cytotoxic, partial curve, poor fit] |  |
| CCOC(=O)/C(N=Nc1ccc2c(c1)OCO2)=C(\C)O | inconclusive: 16.4 µM [cytotoxic, single point] |  |
| CCCc1cc(C(=O)N(C)CC(=O)Nc2ccc(OCC)c(OCC)c2)sc1C | inconclusive: 29.1 µM [cytotoxic, partial curve, poor fit] |  |
| COc1cc(OC)nc(-n2ncc(Br)c(Br)c2=O)n1 | inconclusive: 7.31 µM [cytotoxic, partial curve, poor fit] |  |
| COC(=O)CSc1nc2c(c(=O)n(C)c(=O)n2C)n1CCC(C)C | inconclusive: 16.4 µM [rising, partial curve, poor fit] |  |
| O=C(Nc1cccnc1)c1ccc(COc2cc(Cl)ccc2Cl)o1 | active: 23.1 µM |  |
| CCOC(=O)CN1C(=O)C(Sc2n[nH]c(-c3cccc(C)c3)n2)CCc2ccccc21 (stereo unspecified) | active: 20.6 µM |  |
| CCOC(=O)c1c(NC(=O)c2ccc(Cl)s2)sc(C)c1C |  | inactive: 0% |

Part of the list above, tab-delimited.
SMILES	Potency	activity change, negative = cytotoxicity
Cc1ccc(NC(=O)Nc2cccnc2)cc1		inactive: -4.27%
CCOc1ccc(NC(=O)CC2C(=O)Nc3ccccc3N2C(=O)c2ccccc2)cc1 (stereo unspecified)	inconclusive: 32.6 µM [cytotoxic, partial curve, poor fit]	
C=C(C)C1CC=C(C)/C(=N/NC(=O)c2ccc(NC(=O)CC)cc2)C1 (stereo unspecified)	active: 14.6 µM	

More results

| SMILES | Potency | activity change, negative = cytotoxicity |
| --- | --- | --- |
| CC(=O)NC(=S)Nc1ccc(S(=O)(=O)N(C)Cc2ccccc2)cc1 | inconclusive: 0.0058 µM [rising, full curve, poor fit] |  |
| O=C(c1ccc([N+](=O)[O-])cc1Cl)N1CCN(Cc2ccccc2)CC1 | inconclusive: 18.4 µM [cytotoxic, single point] |  |
| CCOC(=O)C1CCCN(S(=O)(=O)c2ccc(N3CCCCS3(=O)=O)cc2)C1 (stereo unspecified) | inconclusive: 23.1 µM [cytotoxic, single point] |  |
| CC1CCc2noc(NC(=O)c3ccccc3[N+](=O)[O-])c2C1 (stereo unspecified) |  | inactive: 4.28% |
| COc1ccc2c(CC(=O)OCC(=O)Nc3ccc(C)cc3)coc2c1 | inconclusive: 20.6 µM [rising, single point] |  |
| CC(C)(C)NC(=O)CN(C(=O)CSc1nnc(COc2ccccc2)o1)c1cccc(F)c1 | inconclusive: 8.2 µM [cytotoxic, partial curve] |  |
| Cc1ccc(C(CNS(=O)(=O)c2cc(F)ccc2F)N2CCN(C)CC2)cc1 (stereo unspecified) |  | inactive: 3.77% |
| CCOc1ccc(CCNC(=O)c2sc3nc4n(c(=O)c3c2C)CCC4)cc1OCC | inconclusive: 4.61 µM [cytotoxic, full curve] |  |
| Cc1c(CC(=O)N2CCN(C(=O)C3COc4ccccc4O3)CC2)c(=O)oc2cc(O)c(Cl)cc12 (stereo unspecified) | inconclusive: 20.6 µM [rising, single point] |  |
| COc1ccccc1N1CCN(C(=O)C2CCN(S(=O)(=O)c3c(C)noc3/C=C/c3ccc(C)cc3)CC2)CC1 |  | inactive: 0% |
| CCCCn1c(SCC(=O)Nc2cccc(OC)c2)nc2c(sc3ccccc32)c1=O |  | inactive: 10.1% |
| CC(C)(C)c1ccc(C(=O)NCCOc2ccccc2)cc1 |  | inactive: 8.4% |
| Cc1occc1C(=O)N1CCCC(N2CCN(c3cccc(Cl)c3)CC2)C1 (stereo unspecified) | inconclusive: 4.61 µM [cytotoxic, full curve, poor fit] |  |
| CCOC(=O)N1CCC(NC(=O)c2cc3c(-c4cccc(OC)c4)nn(C)c3s2)CC1 | inconclusive: 23.1 µM [cytotoxic, partial curve, poor fit] |  |
| CN(C)C(=O)c1cccc(-c2cc(NC=O)c3ncc(-c4ccc(F)cc4)n3c2)c1 | active: 20.6 µM |  |
| CCC(CC)c1nnc(NC(=O)c2c(C)nn(Cc3ccccc3Cl)c2C)s1 | inconclusive: 8.2 µM [cytotoxic, partial curve] |  |
| COC(=O)[C@@H]1OC(=O)[C@H]2O[C@@]23[C@@]1(C)CC[C@@H]1[C@@]2(C)C=CC(=O)OC(C)(C)[C@@H]2CC(=O)[C@]13C |  | inactive: 22% |
| Cc1cccc2cc3c(N)c(C(=O)Nc4ccc(N5CCOCC5)cc4)sc3nc12 |  | inactive: -2.16% |
| CC(C)(C(=O)N1CCC1(C)C(=O)Nc1ccccc1Br)c1ccccc1 (stereo unspecified) | inconclusive: 14.6 µM [cytotoxic, partial curve] |  |
| CC(=O)Cn1nnc2sc3c(c2c1=O)CCC(C(C)(C)C)C3 (stereo unspecified) | inconclusive: 18.4 µM [cytotoxic, single point] |  |
| COC(=O)[C@@]12C[C@@H](CC(=O)NCC34CC5CC(CC(C5)C3)C4)C(=O)N(Cc3cccc4ccccc34)C1=CCC(C)(C)C2 |  | inactive: -28.3% |
| Cc1nn(-c2ccccc2)c2nc(C(F)F)cc(C(F)F)c12 | inconclusive: 11.6 µM [rising, single point] |  |
| Cc1cc(OC(C)C(=O)NCCCn2ccnc2)c2c(C)c(C)c(=O)oc2c1 (stereo unspecified) | inconclusive: 29.1 µM [rising, single point] |  |
| Cc1cc(C)cc(N2CC(O)=C(c3nc4ccccc4c(=O)[nH]3)C2=N)c1 | inconclusive: 25.9 µM [cytotoxic, partial curve] |  |

| SMILES | Potency | activity change, negative = cytotoxicity |
| --- | --- | --- |
| O=C(COC(=O)c1ccccn1)NCc1cccs1 | inconclusive: 23.1 µM [rising, single point] |  |
| CCc1ccc(OCC(=O)NC(=S)Nc2ccc(C(=O)O)cc2)cc1 |  | inactive: 21.3% |
| c1cc2c3c(cccc3c1)C(N1CCCCCC1)=N2 |  | inactive: -10.4% |
| CC(C)OP(=O)(OC(C)C)C(O)c1ccc2c(c1)OCO2 (stereo unspecified) |  | inactive: 16.8% |
| CC(C)(C)C(=O)NC(=S)NNC(=O)c1sc2ccccc2c1Cl | active: 10.3 µM |  |
| COc1ccc(OC)c(CN2C(=O)c3ccccc3C2c2nnnn2C(C)C)c1 (stereo unspecified) |  | inactive: -28.9% |
| CCc1nnc(NC(=O)c2ccc(S(=O)(=O)N(CC)Cc3ccccc3)cc2)o1 | inconclusive: 4.61 µM [cytotoxic, full curve] |  |
| C=C(C)C(=O)Nc1ccc2nn(-c3ccccc3O)nc2c1 |  | inactive: -18.2% |
| CCN(CC)CCN(C(=O)c1ccc(C(=O)c2ccccc2)cc1)c1nc2cc3c(cc2s1)OCO3 |  | inactive: 4.19% |
| Cc1ccc(S(=O)(=O)N(C)C[C@H]2Oc3cc(C#CC4CCCC4)ccc3S(=O)(=O)N([C@H](C)CO)C[C@H]2C)cc1 |  | inactive: 1.25% |
| CCCn1c(N)c(N(CCOC)C(=O)c2ccc(C#N)cc2)c(=O)[nH]c1=O |  | inactive: 15.8% |
| CCN(CC)S(=O)(=O)c1cccc(-c2nnc(SC(C)C(=O)NCCC3=CCCCC3)o2)c1 (stereo unspecified) | active: 10.3 µM |  |
| Cc1ccc(C)c(C(=O)Cn2ncc(Cl)c(Cl)c2=O)c1 | inconclusive: 23.1 µM [cytotoxic, partial curve, poor fit] |  |
| CN1CCC(=NNC(=O)CN(c2ccc(Oc3ccccc3)cc2)S(C)(=O)=O)CC1 | inconclusive: 29.1 µM [rising, single point] |  |
| O=C(O)c1nn(CC(=O)N2CCN(c3ccccc3)CC2)c(=O)c2ccccc12 | inconclusive: 0.231 µM [rising, full curve, poor fit] |  |
| Fc1ccc(-[n+]2nc(Nc3ccccc3)sc2-c2c(Cl)cccc2Cl)cc1 |  | inactive: -37.4% |
| COc1ccc(NC(=O)c2ccc(F)cc2)cc1S(=O)(=O)Nc1cc(C)ccc1Br | active: 4.61 µM |  |
| O=c1[nH]c2ccccc2c(O)c1-[n+]1ccccc1 |  | inconclusive: 0% |
| C=CCNC(=S)N/N=C(\C)c1cc(OC)c(OC)c(OC)c1 | active: 14.6 µM |  |
| COc1cc(C(=O)NCCCN(C)C)ccc1OCC(=O)Nc1cccc(C(F)(F)F)c1 |  | inactive: 12% |
| Cc1ccc(C(=O)CC(=O)COc2ccc(Cl)cc2)cc1 | inconclusive: 32.6 µM [cytotoxic, partial curve, poor fit] |  |
| Cc1ccn(CC(=O)N2CCCC(N3CCN(c4cccc(Cl)c4)CC3)C2)n1 (stereo unspecified) | inconclusive: 18.4 µM [cytotoxic, single point] |  |
| O=[N+]([O-])c1ccccc1S(=O)(=O)N1CCCCC1 |  | inactive: -14.2% |
